Test results from the supplement of paper PMC11732987, “Enantioselective OTUD7B fragment discovery through chemoproteomics screening and high-throughput optimisation” (Communications Chemistry, 2025).
The list shows a part of the results. The data scatter; read single values as rough.

Protein sequences, listed by entry. Tags and fused reporters are not part of them. Lines headed by an entry give the natural chain unless they say otherwise; changes in a name come on top. Residues count along the entry.
UniProt Q14789, 1143-1165: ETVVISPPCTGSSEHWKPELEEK
UniProt Q9UKJ3, 383-403: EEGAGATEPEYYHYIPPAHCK
UniProt Q06210: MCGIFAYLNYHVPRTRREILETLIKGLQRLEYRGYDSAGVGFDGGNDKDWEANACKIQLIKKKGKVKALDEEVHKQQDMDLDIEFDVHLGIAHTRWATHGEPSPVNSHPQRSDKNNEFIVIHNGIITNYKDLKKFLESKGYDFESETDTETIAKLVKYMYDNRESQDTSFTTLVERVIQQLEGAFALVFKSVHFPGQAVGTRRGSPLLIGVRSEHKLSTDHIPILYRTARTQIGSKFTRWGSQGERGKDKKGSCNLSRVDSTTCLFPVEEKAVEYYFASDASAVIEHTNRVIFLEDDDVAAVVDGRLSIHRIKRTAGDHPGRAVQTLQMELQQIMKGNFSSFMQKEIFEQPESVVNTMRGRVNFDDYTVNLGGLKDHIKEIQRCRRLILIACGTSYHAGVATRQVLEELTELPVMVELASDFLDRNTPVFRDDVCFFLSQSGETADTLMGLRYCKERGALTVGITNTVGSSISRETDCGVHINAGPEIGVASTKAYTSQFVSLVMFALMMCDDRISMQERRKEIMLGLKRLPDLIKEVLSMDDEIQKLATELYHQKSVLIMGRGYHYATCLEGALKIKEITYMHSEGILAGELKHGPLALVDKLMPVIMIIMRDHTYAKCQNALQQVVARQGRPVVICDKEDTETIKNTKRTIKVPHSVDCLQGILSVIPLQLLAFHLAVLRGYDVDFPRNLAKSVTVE
UniProt Q9Y2X7: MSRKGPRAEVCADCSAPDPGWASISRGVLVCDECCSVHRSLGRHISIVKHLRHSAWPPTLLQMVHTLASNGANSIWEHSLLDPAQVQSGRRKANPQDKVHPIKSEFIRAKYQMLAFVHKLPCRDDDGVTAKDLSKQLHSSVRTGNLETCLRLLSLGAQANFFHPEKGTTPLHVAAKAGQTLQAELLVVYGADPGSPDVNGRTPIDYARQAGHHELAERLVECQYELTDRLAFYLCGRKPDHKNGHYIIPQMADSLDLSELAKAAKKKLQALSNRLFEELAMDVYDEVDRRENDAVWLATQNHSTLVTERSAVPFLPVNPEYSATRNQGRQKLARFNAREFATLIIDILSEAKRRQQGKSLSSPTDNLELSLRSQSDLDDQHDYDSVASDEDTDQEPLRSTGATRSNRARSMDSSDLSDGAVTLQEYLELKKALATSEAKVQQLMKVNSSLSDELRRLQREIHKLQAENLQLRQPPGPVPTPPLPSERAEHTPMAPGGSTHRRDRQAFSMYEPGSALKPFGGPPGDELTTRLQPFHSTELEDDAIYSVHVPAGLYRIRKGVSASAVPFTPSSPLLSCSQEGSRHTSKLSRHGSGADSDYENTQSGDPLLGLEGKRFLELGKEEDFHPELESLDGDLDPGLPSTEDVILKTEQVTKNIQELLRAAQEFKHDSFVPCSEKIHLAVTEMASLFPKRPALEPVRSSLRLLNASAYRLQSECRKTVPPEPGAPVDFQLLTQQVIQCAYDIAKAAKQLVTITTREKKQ
UniProt Q08379: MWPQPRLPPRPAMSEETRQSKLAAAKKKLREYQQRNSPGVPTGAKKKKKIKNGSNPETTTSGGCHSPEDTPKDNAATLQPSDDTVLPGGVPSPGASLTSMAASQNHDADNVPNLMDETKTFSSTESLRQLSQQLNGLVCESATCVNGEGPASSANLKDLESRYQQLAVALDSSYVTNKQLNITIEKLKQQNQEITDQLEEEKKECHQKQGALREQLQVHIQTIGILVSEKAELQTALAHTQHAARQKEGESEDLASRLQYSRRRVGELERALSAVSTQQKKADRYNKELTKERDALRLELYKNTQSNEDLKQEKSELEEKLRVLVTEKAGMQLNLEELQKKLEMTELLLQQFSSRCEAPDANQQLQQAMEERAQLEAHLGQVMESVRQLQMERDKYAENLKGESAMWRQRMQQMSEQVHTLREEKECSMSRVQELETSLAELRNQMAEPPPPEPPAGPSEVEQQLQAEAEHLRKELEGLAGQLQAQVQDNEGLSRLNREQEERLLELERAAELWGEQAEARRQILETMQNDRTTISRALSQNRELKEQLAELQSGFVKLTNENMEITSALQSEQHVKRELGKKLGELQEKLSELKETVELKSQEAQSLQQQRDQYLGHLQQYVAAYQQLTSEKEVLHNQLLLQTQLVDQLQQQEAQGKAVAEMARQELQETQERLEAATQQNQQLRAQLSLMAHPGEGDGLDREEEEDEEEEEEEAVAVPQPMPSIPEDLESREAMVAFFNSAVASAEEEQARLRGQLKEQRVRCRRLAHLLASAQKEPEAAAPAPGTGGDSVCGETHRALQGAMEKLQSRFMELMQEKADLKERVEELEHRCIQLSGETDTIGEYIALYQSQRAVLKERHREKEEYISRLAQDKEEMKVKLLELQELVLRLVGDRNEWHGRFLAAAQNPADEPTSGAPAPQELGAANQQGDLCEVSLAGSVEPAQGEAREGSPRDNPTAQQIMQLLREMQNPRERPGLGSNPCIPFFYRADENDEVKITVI
UniProt P49915: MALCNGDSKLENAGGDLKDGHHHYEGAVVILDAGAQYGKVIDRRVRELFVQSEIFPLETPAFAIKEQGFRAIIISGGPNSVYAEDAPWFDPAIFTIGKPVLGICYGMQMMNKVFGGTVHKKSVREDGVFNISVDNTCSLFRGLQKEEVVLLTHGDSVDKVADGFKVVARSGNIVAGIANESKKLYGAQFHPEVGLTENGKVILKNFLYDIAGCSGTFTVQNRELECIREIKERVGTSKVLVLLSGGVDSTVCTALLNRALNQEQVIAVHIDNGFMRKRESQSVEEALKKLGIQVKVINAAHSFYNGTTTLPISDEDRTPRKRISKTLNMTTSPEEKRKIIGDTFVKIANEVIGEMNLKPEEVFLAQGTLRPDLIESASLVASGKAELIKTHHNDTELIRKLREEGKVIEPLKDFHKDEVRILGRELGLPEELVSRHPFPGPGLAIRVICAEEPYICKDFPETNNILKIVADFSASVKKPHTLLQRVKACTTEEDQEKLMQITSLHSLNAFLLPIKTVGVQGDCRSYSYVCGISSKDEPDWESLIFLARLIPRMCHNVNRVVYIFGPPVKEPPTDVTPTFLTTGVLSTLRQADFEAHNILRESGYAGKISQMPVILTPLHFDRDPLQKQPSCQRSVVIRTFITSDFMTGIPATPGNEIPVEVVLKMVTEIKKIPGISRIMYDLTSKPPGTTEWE
UniProt O95749: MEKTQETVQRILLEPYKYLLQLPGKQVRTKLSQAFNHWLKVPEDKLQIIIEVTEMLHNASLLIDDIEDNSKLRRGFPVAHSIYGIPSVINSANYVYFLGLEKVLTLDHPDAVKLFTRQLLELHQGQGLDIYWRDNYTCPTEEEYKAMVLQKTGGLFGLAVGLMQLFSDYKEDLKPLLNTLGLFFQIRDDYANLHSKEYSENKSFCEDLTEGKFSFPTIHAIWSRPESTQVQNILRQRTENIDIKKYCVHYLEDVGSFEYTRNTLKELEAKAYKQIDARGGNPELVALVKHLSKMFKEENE
UniProt P48506: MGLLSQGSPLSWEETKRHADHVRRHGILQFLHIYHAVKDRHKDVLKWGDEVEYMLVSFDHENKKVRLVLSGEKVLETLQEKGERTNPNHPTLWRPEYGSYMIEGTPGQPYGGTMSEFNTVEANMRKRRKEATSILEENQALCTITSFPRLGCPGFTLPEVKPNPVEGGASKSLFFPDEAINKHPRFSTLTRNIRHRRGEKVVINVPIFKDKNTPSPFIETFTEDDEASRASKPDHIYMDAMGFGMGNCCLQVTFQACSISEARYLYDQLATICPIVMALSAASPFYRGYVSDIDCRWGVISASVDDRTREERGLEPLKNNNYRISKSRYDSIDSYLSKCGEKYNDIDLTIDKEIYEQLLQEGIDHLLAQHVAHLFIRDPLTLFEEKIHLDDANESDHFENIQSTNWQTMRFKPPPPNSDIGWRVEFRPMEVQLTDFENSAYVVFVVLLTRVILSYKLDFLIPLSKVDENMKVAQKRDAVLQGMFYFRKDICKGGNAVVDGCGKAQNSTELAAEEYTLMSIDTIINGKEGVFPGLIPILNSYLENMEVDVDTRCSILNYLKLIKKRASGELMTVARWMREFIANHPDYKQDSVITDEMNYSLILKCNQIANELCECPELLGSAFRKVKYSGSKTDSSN
UniProt O60547: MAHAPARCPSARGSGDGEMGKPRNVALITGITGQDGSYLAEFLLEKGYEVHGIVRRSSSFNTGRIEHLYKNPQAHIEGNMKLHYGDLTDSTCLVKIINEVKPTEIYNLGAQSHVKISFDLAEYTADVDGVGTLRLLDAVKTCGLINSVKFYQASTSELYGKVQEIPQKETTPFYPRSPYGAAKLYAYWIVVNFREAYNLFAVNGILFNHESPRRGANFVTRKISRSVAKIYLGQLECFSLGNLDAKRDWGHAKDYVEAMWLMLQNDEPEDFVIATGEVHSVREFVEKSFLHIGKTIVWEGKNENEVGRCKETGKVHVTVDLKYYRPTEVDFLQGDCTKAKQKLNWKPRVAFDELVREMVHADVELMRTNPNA
UniProt P00367: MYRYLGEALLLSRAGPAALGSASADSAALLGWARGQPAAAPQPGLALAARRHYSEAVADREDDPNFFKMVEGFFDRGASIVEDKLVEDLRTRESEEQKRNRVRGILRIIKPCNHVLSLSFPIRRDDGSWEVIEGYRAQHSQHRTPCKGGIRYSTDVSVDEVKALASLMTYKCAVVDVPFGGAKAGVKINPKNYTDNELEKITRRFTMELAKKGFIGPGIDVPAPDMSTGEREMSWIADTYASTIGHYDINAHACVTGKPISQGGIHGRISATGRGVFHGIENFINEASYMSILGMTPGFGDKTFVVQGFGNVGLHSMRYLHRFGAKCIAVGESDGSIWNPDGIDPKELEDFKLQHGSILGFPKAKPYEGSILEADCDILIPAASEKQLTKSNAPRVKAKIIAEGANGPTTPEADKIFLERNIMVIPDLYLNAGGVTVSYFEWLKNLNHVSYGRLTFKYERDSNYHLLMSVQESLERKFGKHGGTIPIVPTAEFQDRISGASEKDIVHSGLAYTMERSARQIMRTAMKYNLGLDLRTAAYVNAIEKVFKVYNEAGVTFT
UniProt O14893: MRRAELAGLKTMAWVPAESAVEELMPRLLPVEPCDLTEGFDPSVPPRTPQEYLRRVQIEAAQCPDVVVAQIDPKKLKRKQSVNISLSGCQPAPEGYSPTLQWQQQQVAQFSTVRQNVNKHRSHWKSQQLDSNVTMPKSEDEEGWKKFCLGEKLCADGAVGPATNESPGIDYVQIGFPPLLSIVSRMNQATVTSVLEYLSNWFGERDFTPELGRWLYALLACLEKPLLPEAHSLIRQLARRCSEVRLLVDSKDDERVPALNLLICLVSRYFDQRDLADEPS
UniProt Q7Z2K8: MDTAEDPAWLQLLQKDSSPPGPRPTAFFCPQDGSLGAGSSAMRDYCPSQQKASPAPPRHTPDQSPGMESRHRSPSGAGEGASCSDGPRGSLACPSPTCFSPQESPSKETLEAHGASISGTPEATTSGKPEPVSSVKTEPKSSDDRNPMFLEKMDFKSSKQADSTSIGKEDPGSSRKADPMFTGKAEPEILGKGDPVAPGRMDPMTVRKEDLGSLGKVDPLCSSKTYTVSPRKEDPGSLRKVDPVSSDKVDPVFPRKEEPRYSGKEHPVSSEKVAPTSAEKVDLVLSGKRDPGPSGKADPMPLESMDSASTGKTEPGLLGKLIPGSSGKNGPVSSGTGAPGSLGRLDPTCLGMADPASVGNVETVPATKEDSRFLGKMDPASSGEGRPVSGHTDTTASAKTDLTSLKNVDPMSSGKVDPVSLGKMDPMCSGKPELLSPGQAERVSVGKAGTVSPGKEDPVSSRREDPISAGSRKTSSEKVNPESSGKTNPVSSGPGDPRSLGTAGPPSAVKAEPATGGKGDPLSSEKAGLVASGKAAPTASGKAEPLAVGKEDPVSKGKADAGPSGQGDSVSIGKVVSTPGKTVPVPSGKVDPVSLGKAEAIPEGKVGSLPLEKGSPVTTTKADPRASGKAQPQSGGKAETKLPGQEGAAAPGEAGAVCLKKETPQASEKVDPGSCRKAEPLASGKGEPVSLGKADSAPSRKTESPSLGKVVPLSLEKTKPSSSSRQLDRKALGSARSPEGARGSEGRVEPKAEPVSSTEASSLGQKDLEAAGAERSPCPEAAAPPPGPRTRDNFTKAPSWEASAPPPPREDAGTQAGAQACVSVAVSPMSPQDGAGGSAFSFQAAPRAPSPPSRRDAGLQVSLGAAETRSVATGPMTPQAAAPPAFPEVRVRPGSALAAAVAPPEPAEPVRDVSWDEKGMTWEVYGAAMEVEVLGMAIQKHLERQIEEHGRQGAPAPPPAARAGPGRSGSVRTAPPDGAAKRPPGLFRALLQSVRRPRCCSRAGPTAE

compound: ClCC(=O)N[C@H]1CCCc2ccccc12; test: log2 mean competition ratio of IA-DTB cysteine labelling (DMSO/compound) (log2 ratio); higher = stronger cysteine engagement by compound; settings: 50 µM; treatment time: 4 h; cell line lysate: HEK293T
Protocol: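 IA-DTB competitive cysteine chemoproteomics in HEK293T RIPA lysate. Lysates were treated with compound 29 or 30 at 50 or 200 µM for 4 h, then IA-DTB (500 µM, 1 h), trypsin-digested, NeutrAvidin-enriched and analysed by diaPASEF. Competition ratio = intensity DMSO / intensity compound (n=4 treated, n=64 DMSO); binding: mean log2 CR ≥ 1 and p ≤ 0.05 plus QC filters. Target is the cysteine site.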

| Target | log2 mean competition ratio |
| --- | --- |
| GOLGB1 C1151 (UniProt Q14789) | 0.198 |
| GFPT2 C247 (UniProt O94808) | -0.292 |
| GOLGA3 C455 (UniProt Q08378) | 0.0788 |
| GPATCH8 C402 (UniProt Q9UKJ3) | 0.328 |
| GFPT1 C254 (UniProt Q06210) | 0.336 |
| GCN1 C329 (UniProt Q92616) | -0.282 |
| GIT1 C674 (UniProt Q9Y2X7) | -0.0578 |
| GGCX C99 (UniProt P38435) | 0.123 |
| GOLGA2 C356 (UniProt Q08379) | 0.522 |
| GMPS C456 (UniProt P49915) | 0.363 |
| GEMIN4 C382 (UniProt P57678) | -0.206 |
| GLI3 C870 | -0.0475 |
| GLMN C36 (UniProt Q92990) | -0.373 |
| GGPS1 C205 (UniProt O95749) | -0.237 |
| GCLC C501 (UniProt P48506) | 0.243 |
| GMDS C336 (UniProt O60547) | -0.0927 |
| GLUD1 C172 (UniProt P00367) | -0.195 |
| GPD2 C270 (UniProt P43304) | -0.382 |
| GEMIN2 C63 (UniProt O14893) | -0.0786 |
| GPRIN1 C778 (UniProt Q7Z2K8) | -0.159 |

same assay, conditions: 200 µM; treatment time: 4 h; cell line lysate: HEK293T

| Target | log2 mean competition ratio |
| --- | --- |
| GOLGB1 C1151 (UniProt Q14789) | -0.0517 |
| GFPT2 C247 (UniProt O94808) | -0.128 |
| GOLGA3 C455 (UniProt Q08378) | -0.137 |
| GPATCH8 C402 (UniProt Q9UKJ3) | 0.228 |
| GFPT1 C254 (UniProt Q06210) | 0.205 |
| GCN1 C329 (UniProt Q92616) | 0.0612 |
| GIT1 C674 (UniProt Q9Y2X7) | 0.114 |
| GGCX C99 (UniProt P38435) | 0.0789 |
| GOLGA2 C356 (UniProt Q08379) | 0.568 |
| GMPS C456 (UniProt P49915) | 0.405 |
| GEMIN4 C382 (UniProt P57678) | 0.087 |
| GLI3 C870 | 0.139 |
| GLMN C36 (UniProt Q92990) | -0.0468 |
| GGPS1 C205 (UniProt O95749) | -0.000822 |
| GCLC C501 (UniProt P48506) | 0.119 |
| GMDS C336 (UniProt O60547) | 0.0642 |
| GLUD1 C172 (UniProt P00367) | 0.033 |
| GPD2 C270 (UniProt P43304) | -0.0478 |
| GEMIN2 C63 (UniProt O14893) | -0.238 |
| GPRIN1 C778 (UniProt Q7Z2K8) | -0.0747 |
